The supplement of paper PMC4604168 (melanoma cell lines)
The other results are listed elsewhere or left out. Single values are uncertain, as repeats are few or missing.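 Imaging used 1,536-well plates; nuclei positive for cleaved PARP by antibody were divided by total DNA-stained nuclei to yield the apoptosis fraction. Doses for screening kept most cells viable, and cell lines differ markedly in resting and induced cleaved-PARP levels.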

Assays:
Assay in all cases: cleaved PARP positive nuclei fraction relative to DMSO control; melanoma cells; higher = more apoptosis
Settings in all cases: library dose: low library concentration; 72 h
MZ2-MEL = system: MZ2-MEL
MeWo = system: MeWo
RPMI7951 = system: RPMI7951
RVH-421 = system: RVH-421
SkMel28 = system: SkMel28
SkMel2 = system: SkMel2
SkMel30 = system: SkMel30
UACC62 = system: UACC62
SkMel5 = system: SkMel5
UACC257 = system: UACC257

SMILES | cleaved PARP positive nuclei fraction (MZ2-MEL) | cleaved PARP positive nuclei fraction (MeWo) | cleaved PARP positive nuclei fraction (RPMI7951) | cleaved PARP positive nuclei fraction (RVH-421) | cleaved PARP positive nuclei fraction (SkMel28) | cleaved PARP positive nuclei fraction (SkMel2) | cleaved PARP positive nuclei fraction (SkMel30) | cleaved PARP positive nuclei fraction (UACC62) | cleaved PARP positive nuclei fraction (SkMel5) | cleaved PARP positive nuclei fraction (UACC257)
Cn1cnc2c(F)c(Nc3ccc(Br)cc3Cl)c(C(=O)NOCCO)cc21 [selumetinib] + OCc1c[nH]c2ccccc12 [Indole-3-carbinol] (first compound 0.015 µM, partner dose 0.8 µM) | 231% | 189% | 64.2% | 73.1% | 163% | 31.7% | 59.7% | 215% | – | –
COc1ccc(C2=N[C@@H](c3ccc(Cl)cc3)[C@@H](c3ccc(Cl)cc3)N2C(=O)N2CCNC(=O)C2)c(OC(C)C)c1 [Nutlin-3] + CCCS(=O)(=O)Nc1ccc(F)c(C(=O)c2c[nH]c3ncc(Cl)cc23)c1F [PLX4720] (first compound 0.1 µM, partner dose 0.08 µM) | 165% | 132% | 88.1% | 216% | 162% | 179% | 65.9% | 133% | – | –
CC(=O)O[C@@]12CO[C@@H]1C[C@H](O)[C@@]1(C)C(=O)[C@H](O)C3=C(C)[C@@H](OC(=O)[C@H](O)[C@@H](NC(=O)OC(C)(C)C)c4ccccc4)C[C@@](O)([C@@H](OC(=O)c4ccccc4)[C@H]21)C3(C)C [Docetaxel] + Nc1ccn([C@@H]2O[C@H](CO)[C@@H](O)C2(F)F)c(=O)n1 [gemcitabine] (first compound 0.0001 µM, partner dose 0.0004 µM) | 493% | 746% | 273% | 87.4% | 229% | 640% | 519% | 579% | – | –
CC1(C)CCC(c2ccc(Cl)cc2)=C(CN2CCN(c3ccc(C(=O)NS(=O)(=O)c4ccc(N[C@H](CCN5CCOCC5)CSc5ccccc5)c(S(=O)(=O)C(F)(F)F)c4)cc3)CC2)C1 + CO[C@H]1C[C@@H]2CC[C@@H](C)[C@@](O)(O2)C(=O)C(=O)N2CCCC[C@H]2C(=O)O[C@H]([C@H](C)C[C@@H]2CC[C@@H](OCCO)[C@H](OC)C2)CC(=O)[C@H](C)/C=C(\C)[C@@H](O)[C@@H](OC)C(=O)[C@H](C)C[C@H](C)/C=C/C=C/C=C/1C [everolimus] (first compound 0.4 µM, partner dose 0.02 µM) | 155% | 661% | 104% | 119% | 555% | – | 875% | 163% | – | –
CCCCCCCCc1ccc(CCC(N)(CO)CO)cc1 [fingolimod] + CC(=O)c1c(C)c2cnc(Nc3ccc(N4CCNCC4)cn3)nc2n(C2CCCC2)c1=O [palbociclib] (first compound 2 µM, partner dose 0.04 µM) | 76.4% | 91.6% | 167% | 26.5% | 52.9% | – | 93.2% | 97% | – | –
COc1ccc(C2=N[C@@H](c3ccc(Cl)cc3)[C@@H](c3ccc(Cl)cc3)N2C(=O)N2CCNC(=O)C2)c(OC(C)C)c1 [Nutlin-3] + CC(=O)c1c(C)c2cnc(Nc3ccc(N4CCNCC4)cn3)nc2n(C2CCCC2)c1=O [palbociclib] (first compound 0.1 µM, partner dose 0.04 µM) | 77.7% | 54% | 178% | 71.3% | 80% | 31.7% | 45.1% | 129% | – | –
CCN(CC)CCNC(=O)c1c(C)[nH]c(/C=C2\C(=O)Nc3ccc(F)cc32)c1C [sunitinib] + OCc1c[nH]c2ccccc12 [Indole-3-carbinol] (first compound 0.4 µM, partner dose 0.8 µM) | 62.6% | 86.9% | 66% | 58.9% | 120% | 51.5% | 47.8% | 64.8% | – | –
CCCCCCCCc1ccc(CCC(N)(CO)CO)cc1 [fingolimod] + OCc1c[nH]c2ccccc12 [Indole-3-carbinol] (first compound 2 µM, partner dose 0.8 µM) | 104% | 86.7% | 54.2% | 51.2% | 73.9% | 71.4% | 88.2% | 61.2% | – | –
CN(c1ncccc1CNc1nc(Nc2ccc3c(c2)CC(=O)N3)ncc1C(F)(F)F)S(C)(=O)=O + Cn1c(=O)n(-c2ccc(C(C)(C)C#N)cc2)c2c3cc(-c4cnc5ccccc5c4)ccc3ncc21 [NVP-BEZ235] (first compound 0.08 µM, partner dose 0.004 µM) | 79.4% | 470% | 288% | 70.5% | 111% | 89.2% | 92.4% | 192% | – | –
COc1ccc(C2=N[C@@H](c3ccc(Cl)cc3)[C@@H](c3ccc(Cl)cc3)N2C(=O)N2CCNC(=O)C2)c(OC(C)C)c1 [Nutlin-3] + CN(c1ncccc1CNc1nc(Nc2ccc3c(c2)CC(=O)N3)ncc1C(F)(F)F)S(C)(=O)=O [PF562271] (first compound 0.1 µM, partner dose 0.08 µM) | 49.8% | 108% | 60.4% | 102% | 68.2% | 115% | 51.2% | 78% | – | –
CN(c1ncccc1CNc1nc(Nc2ccc3c(c2)CC(=O)N3)ncc1C(F)(F)F)S(C)(=O)=O + O=C(O)[C@@H]1[O][Sb](=[O])([O][Sb]2(=[O])[O][C@H]([C@H](O)CO)[C@H](O)[C@H](C(=O)O)[O]2)[O][C@H]([C@H](O)CO)[C@@H]1O [stibogluconate] (first compound 0.08 µM, partner dose 2 µM) | 156% | 37.9% | 106% | 86.5% | 83.2% | 94.9% | 88.2% | 48.9% | – | –
CC(=O)O[C@@]12CO[C@@H]1C[C@H](O)[C@@]1(C)C(=O)[C@H](O)C3=C(C)[C@@H](OC(=O)[C@H](O)[C@@H](NC(=O)OC(C)(C)C)c4ccccc4)C[C@@](O)([C@@H](OC(=O)c4ccccc4)[C@H]21)C3(C)C [Docetaxel] + CN(c1ncccc1CNc1nc(Nc2ccc3c(c2)CC(=O)N3)ncc1C(F)(F)F)S(C)(=O)=O [PF562271] (first compound 0.0001 µM, partner dose 0.08 µM) | 648% | 686% | 510% | 53.5% | 284% | 646% | 961% | 285% | – | –
CCN(CC)CCNC(=O)c1c(C)[nH]c(/C=C2\C(=O)Nc3ccc(F)cc32)c1C [sunitinib] + Nc1nc(F)nc2c1ncn2[C@@H]1O[C@H](CO)[C@@H](O)[C@@H]1O [fludarabine] (first compound 0.4 µM, partner dose 0.2 µM) | 182% | 333% | 222% | 45.4% | 302% | 617% | 2130% | 85% | – | –
Cn1cnc2c(F)c(Nc3ccc(Br)cc3Cl)c(C(=O)NOCCO)cc21 [selumetinib] + NC(=O)c1ccc(N(C(N)=O)c2c(F)cccc2F)nc1-c1ccc(F)cc1F [VX702] (first compound 0.015 µM, partner dose 0.4 µM) | 84.2% | 133% | 109% | 167% | 244% | 165% | 214% | 182% | – | –
C[C@@H](N)c1ccc(C(=O)Nc2ccnc3[nH]ccc23)cc1 + COCC[n+]1c2c(n(Cc3cnccn3)c1C)C(=O)c1ccccc1C2=O [YM155] (first compound 0.4 µM, partner dose 0.0004 µM) | 559% | 119% | 33.8% | 147% | 99% | 170% | 21.1% | 94.8% | – | –
CS(=O)(=O)c1ccc(C(=O)Nc2ccc(Cl)c(-c3ccccn3)c2)c(Cl)c1 [vismodegib] + CN(c1ncccc1CNc1nc(Nc2ccc3c(c2)CC(=O)N3)ncc1C(F)(F)F)S(C)(=O)=O [PF562271] (first compound 1 µM, partner dose 0.08 µM) | 70% | 312% | 108% | 158% | 39.9% | 82% | 69% | 228% | – | –
CC1(C)CCC(c2ccc(Cl)cc2)=C(CN2CCN(c3ccc(C(=O)NS(=O)(=O)c4ccc(N[C@H](CCN5CCOCC5)CSc5ccccc5)c(S(=O)(=O)C(F)(F)F)c4)cc3)CC2)C1 + Nc1ccn([C@@H]2O[C@H](CO)[C@@H](O)C2(F)F)c(=O)n1 [gemcitabine] (first compound 0.4 µM, partner dose 0.0004 µM) | 473% | 172% | 76.7% | 189% | 83.1% | 52.9% | 123% | 94.4% | – | –
CCN(CC)CCNC(=O)c1c(C)[nH]c(/C=C2\C(=O)Nc3ccc(F)cc32)c1C [sunitinib] + COCC[n+]1c2c(n(Cc3cnccn3)c1C)C(=O)c1ccccc1C2=O [YM155] (first compound 0.4 µM, partner dose 0.0004 µM) | 33.7% | 83.1% | 202% | 233% | 212% | 55.2% | 85.1% | 120% | – | –
COc1ccc(C2=N[C@@H](c3ccc(Cl)cc3)[C@@H](c3ccc(Cl)cc3)N2C(=O)N2CCNC(=O)C2)c(OC(C)C)c1 [Nutlin-3] + COCC[n+]1c2c(n(Cc3cnccn3)c1C)C(=O)c1ccccc1C2=O [YM155] (first compound 0.1 µM, partner dose 0.0004 µM) | 63.2% | 84% | 48.8% | 118% | 33.6% | – | 94.1% | 142% | – | –
CC(=O)O[C@@]12CO[C@@H]1C[C@H](O)[C@@]1(C)C(=O)[C@H](O)C3=C(C)[C@@H](OC(=O)[C@H](O)[C@@H](NC(=O)OC(C)(C)C)c4ccccc4)C[C@@](O)([C@@H](OC(=O)c4ccccc4)[C@H]21)C3(C)C [Docetaxel] + COc1cc2ncnc(Nc3ccc(Oc4ccccc4)cc3)c2cc1OC [SrcI1] (first compound 0.0001 µM, partner dose 2 µM) | – | 428% | 124% | 142% | 1010% | 880% | 372% | 343% | 109% | 271%
CS(=O)(=O)c1ccc(C(=O)Nc2ccc(Cl)c(-c3ccccn3)c2)c(Cl)c1 [vismodegib] + Nc1cccc2c1CN(C1CCC(=O)NC1=O)C2=O [lenalidomide] (first compound 1 µM, partner dose 1 µM) | 123% | 89.5% | 83.5% | 37.8% | 40.5% | – | 29.8% | 193% | – | –

Two records picked at random from the list so far, as already listed:
SMILES | cleaved PARP positive nuclei fraction (MZ2-MEL) | cleaved PARP positive nuclei fraction (MeWo) | cleaved PARP positive nuclei fraction (RPMI7951) | cleaved PARP positive nuclei fraction (RVH-421) | cleaved PARP positive nuclei fraction (SkMel28) | cleaved PARP positive nuclei fraction (SkMel2) | cleaved PARP positive nuclei fraction (SkMel30) | cleaved PARP positive nuclei fraction (UACC62) | cleaved PARP positive nuclei fraction (SkMel5) | cleaved PARP positive nuclei fraction (UACC257)
CC(=O)O[C@@]12CO[C@@H]1C[C@H](O)[C@@]1(C)C(=O)[C@H](O)C3=C(C)[C@@H](OC(=O)[C@H](O)[C@@H](NC(=O)OC(C)(C)C)c4ccccc4)C[C@@](O)([C@@H](OC(=O)c4ccccc4)[C@H]21)C3(C)C [Docetaxel] + CN(c1ncccc1CNc1nc(Nc2ccc3c(c2)CC(=O)N3)ncc1C(F)(F)F)S(C)(=O)=O [PF562271] (first compound 0.0001 µM, partner dose 0.08 µM) | 648% | 686% | 510% | 53.5% | 284% | 646% | 961% | 285% | – | –
CS(=O)(=O)c1ccc(C(=O)Nc2ccc(Cl)c(-c3ccccn3)c2)c(Cl)c1 [vismodegib] + CN(c1ncccc1CNc1nc(Nc2ccc3c(c2)CC(=O)N3)ncc1C(F)(F)F)S(C)(=O)=O [PF562271] (first compound 1 µM, partner dose 0.08 µM) | 70% | 312% | 108% | 158% | 39.9% | 82% | 69% | 228% | – | –
